Measurements from US20240059691A1 (KALVISTA PHARMACEUTICALS LIMITED, priority 2020, published 2024).
At least one read-out could not be matched to a standard name with certainty.

Sequences of proteins named here, by UniProt entry; tags and fusion partners are left off. Residues count along the entry.
UniProt P00748, 373-615: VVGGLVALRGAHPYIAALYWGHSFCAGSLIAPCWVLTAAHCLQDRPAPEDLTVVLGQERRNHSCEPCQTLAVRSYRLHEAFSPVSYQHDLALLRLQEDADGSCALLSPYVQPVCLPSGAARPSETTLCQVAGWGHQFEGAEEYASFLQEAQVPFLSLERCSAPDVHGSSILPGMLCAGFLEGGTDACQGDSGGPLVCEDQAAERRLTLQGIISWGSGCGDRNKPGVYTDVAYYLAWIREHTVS

Molecular target: Human Factor XIIa (Homo sapiens (Human), UniProt P00748)
Experiment: Determination of FXIIa inhibition (fluorogenic substrate H-DPro-Phe-Arg-AFC, IC50 assay)
Type: biochemical
Settings: substrate H-DPro-Phe-Arg-AFC at Km, 25° C.; class scale H1-H3 for compounds that did not achieve 50% inhibition
Protocol: Determination of FXIIa Inhibition
In vitro inhibition of Factor XIIa was determined using an IC50 assay based on standard literature methods (see e.g Baeriswyl et al., ACS Chem. Biol., 2015, 10 (8) 1861; Bouckaert et al., European Journal of Medicinal Chemistry 110 (2016) 181). Human Factor XIIa (Enzyme Research Laboratories) was incubated at 25° C. with the fluorogenic substrate H-DPro-Phe-Arg-AFC (Peptide Protein Science) and various concentrations of the test compound. Protease activity was measured by monitoring the accumulation of liberated fluorescence from the substrate over 5 min at 25° C. The linear rate of fluorescence increase per minute was expressed as percentage (%) activity. The Km for the cleavage of the substrate by FXIIa was determined by standard transformation of the Michaelis-Menten equation. The compound inhibitor assays were performed at substrate Km concentration. IC50 values were calculated as the concentration of inhibitor giving 50% inhibition (IC50) of the uninhibited enzyme activity (100%).

Question: Which “Human FXIIa IC50 (nM): test compounds that did not achieve 50% inhibition” value does the source give for `CC(=O)c1cncc(NCc2ccnc(OCC3CCN(C)CC3)c2)c1` [Example 4455] here?
Answer: H2 (>20% inhibition @ 100 μM)
